Data published in the supplement of paper PMC10032668.
The other results are listed elsewhere or left out. Only hits are listed; about a third recur on repeated control peptides.

How the values were obtained:
Assay in all cases: PRISMA enrichment of interactor (LFQ) in peptide spot vs all other peptide spots (log2 fold change); higher = stronger / more specific binding of the interactor to the peptide
[1] = biological target: CNOT1, A5YKK6
Description: (§1)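 PRISMA: 15-aa overlapping tiles (offset 8 aa) of 60 microproteins, plus SOS1/GLUT1 control peptides, were spot-synthesized on cellulose membranes in triplicate. Membranes were incubated with benzonase-treated HEK293T lysate, and bound proteins were identified by LC-MS/MS with LFQ. Enrichment is the log2 fold change of each protein in one spot versus all other spots. Only interactors passing the significance cutoff are listed.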

[2] = biological target: HAGH, Q16775
Description: as §1

[3] = biological target: HYOU1, Q9Y4L1
Description: as §1

[4] = biological target: CHTOP, Q9Y3Y2
Description: as §1

[5] = biological target: DDX5, P17844
Description: as §1

[6] = biological target: EIF1, P41567
Description: as §1

[7] = biological target: MMS19, Q96T76
Description: as §1

[8] = biological target: NDUFA8, P51970
Description: as §1

[9] = biological target: ODF2, Q5BJF6
Description: as §1

[10] = biological target: CKB, P12277
Description: as §1

[11] = biological target: CNN3, Q15417
Description: as §1

[12] = biological target: COPZ1, P61923
Description: as §1

[13] = biological target: CPNE3, O75131
Description: as §1

[14] = biological target: CUL3, Q13618
Description: as §1

[15] = biological target: EIF2S3, P41091
Description: as §1

[16] = biological target: EIF3G, O75821
Description: as §1

[17] = biological target: ELOVL5, Q9NYP7
Description: as §1

[18] = biological target: ESYT1, Q9BSJ8
Description: as §1

[19] = biological target: HNRNPDL, O14979
Description: as §1

[20] = biological target: IGF2BP2, Q9Y6M1
Description: as §1

[21] = biological target: MAT2A, P31153
Description: as §1

[22] = biological target: MDN1, Q9NU22
Description: as §1

[23] = biological target: MRPL39, Q9NYK5
Description: as §1

[24] = biological target: MYH10, P35580
Description: as §1

[25] = biological target: NIFK, Q9BYG3
Description: as §1

[26] = biological target: PAK1IP1, Q9NWT1
Description: as §1

[27] = biological target: PFDN6, O15212
Description: as §1

[28] = biological target: PLAA, Q9Y263
Description: as §1

[29] = biological target: PRPF38A, Q8NAV1
Description: as §1

[30] = biological target: SPTLC1, O15269
Description: as §1

[31] = biological target: SUGP2, Q8IX01
Description: as §1

[32] = biological target: TARS, P26639
Description: as §1

[33] = biological target: UCK2, Q9BZX2
Description: as §1

[34] = biological target: CIAO1, O76071
Description: as §1

[35] = biological target: DDX54, Q8TDD1
Description: as §1

[36] = biological target: DMAC2, Q9NW81
Description: as §1

[37] = biological target: MLIP, Q5VWP3
Description: as §1

[38] = biological target: NCBP3, Q53F19
Description: as §1

[39] = biological target: NFS1, Q9Y697
Description: as §1

[40] = biological target: PRMT5, O14744
Description: as §1

[41] = biological target: SMC3, Q9UQE7
Description: as §1

[42] = biological target: USO1, O60763
Description: as §1

[43] = biological target: XPOT, O43592
Description: as §1

[44] = biological target: ZC3HC1, Q86WB0
Description: as §1

IRQWTYRSWGNGCSE [SNHG8_2]
PRISMA enrichment of interactor (log2) [1]: 5.26
PRISMA enrichment of interactor (log2) [2]: 5.67
PRISMA enrichment of interactor (log2) [3]: 5.35

GAGGWLVVGFLLCLF [TUG1]
PRISMA enrichment of interactor (log2) [4]: 5.32
PRISMA enrichment of interactor (log2) [5]: 4.59
PRISMA enrichment of interactor (log2) [6]: 5.21
PRISMA enrichment of interactor (log2) [7]: 4.58
PRISMA enrichment of interactor (log2) [8]: 4.68
PRISMA enrichment of interactor (log2) [9]: 5.38

MNGLTTGRPALLQML
PRISMA enrichment of interactor (log2) [10]: 5.7
PRISMA enrichment of interactor (log2) [11]: 6.9
PRISMA enrichment of interactor (log2) [12]: 5.51
PRISMA enrichment of interactor (log2) [13]: 4.35
PRISMA enrichment of interactor (log2) [14]: 6.48
PRISMA enrichment of interactor (log2) [15]: 6.19
PRISMA enrichment of interactor (log2) [16]: 6.13
PRISMA enrichment of interactor (log2) [17]: 5.72
PRISMA enrichment of interactor (log2) [18]: 7.45
PRISMA enrichment of interactor (log2) [19]: 4.89
PRISMA enrichment of interactor (log2) [20]: 5.03
PRISMA enrichment of interactor (log2) [21]: 6.37
PRISMA enrichment of interactor (log2) [22]: 7.8
PRISMA enrichment of interactor (log2) [23]: 8.45
PRISMA enrichment of interactor (log2) [24]: 10.6
PRISMA enrichment of interactor (log2) [25]: 5.13
PRISMA enrichment of interactor (log2) [26]: 4.5
PRISMA enrichment of interactor (log2) [27]: 5.7
PRISMA enrichment of interactor (log2) [28]: 4.6
PRISMA enrichment of interactor (log2) [29]: 5.38
PRISMA enrichment of interactor (log2) [30]: 3.86
PRISMA enrichment of interactor (log2) [31]: 7.67
PRISMA enrichment of interactor (log2) [32]: 4.69
PRISMA enrichment of interactor (log2) [33]: 6.36

CVLMRYDSLKVCGSS
PRISMA enrichment of interactor (log2) [34]: 4.41
PRISMA enrichment of interactor (log2) [35]: 6.29
PRISMA enrichment of interactor (log2) [36]: 4.98
PRISMA enrichment of interactor (log2) [37]: 5.11
PRISMA enrichment of interactor (log2) [38]: 5.2
PRISMA enrichment of interactor (log2) [39]: 6.91
PRISMA enrichment of interactor (log2) [9]: 9.79
PRISMA enrichment of interactor (log2) [40]: 4.97
PRISMA enrichment of interactor (log2) [41]: 4.7
PRISMA enrichment of interactor (log2) [42]: 6.97
PRISMA enrichment of interactor (log2) [43]: 3.99
PRISMA enrichment of interactor (log2) [44]: 5.36
